Drawing on publication PMC7779776, this text covers binding for two molecules.

No constants are given. Whether binding was seen depends on the method and setting. Some binding calls cover weakened binding; strength is not graded here.

In experiment [1] the target is T1, VARP-ANK1 (ANK1-domain of VARP) (UniProt Q96NW4).
T1 sequence: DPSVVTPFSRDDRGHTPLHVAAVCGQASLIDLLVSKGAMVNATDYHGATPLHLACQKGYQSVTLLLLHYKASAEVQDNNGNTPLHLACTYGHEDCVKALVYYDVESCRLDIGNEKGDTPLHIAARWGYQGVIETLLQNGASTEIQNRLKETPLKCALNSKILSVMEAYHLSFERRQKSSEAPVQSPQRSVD
Put plainly: SEC; analytical SEC (aSEC), Rab32 loaded with GDP (98%); 50 μM Rab32 equilibrated with 50 μM VARP-ANK1 for 1 h at 15°C, 50 μL separated, 280 nm, peaks deconvolved; single proteins run as reference; both purified. In general terms: Size exclusion chromatography separates by hydrodynamic size, large species first.

Experiment [2] concerns the target T1, VARP-ANK1 (ANK1-domain of VARP). Put plainly: SEC; analytical SEC (aSEC), Rab32 loaded with GppNHp (90%); analysis as for the GDP state (50 μM each, 1 h at 15°C), 280 nm, peaks deconvolved; both purified.

Consider “Rab32_(cleaved) (Rab32 cleaved by GtgE between G59 and V60) (from UniProt Q13637 1-59; Q13637 60-225) (complex)”, for which the binding result in experiment [1] and in experiment [2] was “no binding (tested: 50 μM each)” each time.

B1: Rab32 (uncleaved, non-modified) (protein, UniProt Q13637 1-225)
chain: MAGGGAGDPGLGAAAAPAPETREHLFKVLVIGELGVGKTSIIKRYVHQLFSQHYRATIGVDFALKVLNWDSRTLVRLQLWDIAGQERFGNMTRVYYKEAVGAFVVFDISRSSTFEAVLKWKSDLDSKVHLPNGSPIPAVLLANKCDQNKDSSQSPSQVDQFCKEHGFAGWFETSAKDNINIEEAARFLVEKILVNHQSFPNEENDVDKIKLDQETLRAENKSQCC
For the molecule B1, the binding entry in experiment [1] is “no binding (condition: Rab32 loaded with GDP (50 μM each))”; in experiment [2] it was “binds”.
